PubChem BioAssay AID602196, INSERM | 2012
The deposit covers about 23,000 reagents; shown is a random part of them. Of all reagents, 455 (2%) were called active. 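Active includes both protection and sensitisation; some change values fall well beyond the stated -50 to +50 range.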 Not all columns of the deposit are shown. The record does not give: the amount of reagent.

- Test: 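Genes whose knock-down alters cisplatin killing of lung cancer cells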
- System: human A549 lung cancer cells
- Knock-down reagent: siRNA pair against human genes
- Duration: 48 h transfection before cisplatin; time from cisplatin to read-out not stated
- Treatment: cisplatin at a dose killing half of control-siRNA cells; exact dose and duration not given
- Measured: 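Cisplatin cell death as a shift from the 50% death seen with control siRNA; siRNAs toxic or growth-blocking alone scored 0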
- Scale: two-siRNA summed score (-2 to +2): higher = both siRNAs protect from cisplatin killing; -2 means both sensitise
- Active means: 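Each siRNA scores 0 if harmful alone by LDH or WST-1, otherwise +1 if it reduces and -1 if it increases cisplatin killing; a gene is active when both siRNAs agree (sum +2 or -2)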
- Calls: active = both siRNAs shift cisplatin killing the same way; inactive = no consistent shift, or siRNA harmful alone

gene	two-siRNA summed score (-2 to +2)	call
CBY2 (chibby family member 2)	0	inactive
CADPS2 (calcium dependent secretion activator 2)	0	inactive
GPR158 (G protein-coupled receptor 158)	1	inactive
LOC285984	0	inactive
TMEM59L (transmembrane protein 59 like)	0	inactive
RPS2P45 (ribosomal protein S2 pseudogene 45)	0	inactive
LOC93429	0	inactive
LOC153027	0	inactive
PNMA5 (PNMA family member 5)	0	inactive
MMP20 (matrix metallopeptidase 20)	-1	inactive
RAPGEF1 (Rap guanine nucleotide exchange factor 1)	0	inactive
LOC342669	0	inactive
RALGAPB (Ral GTPase activating protein non-catalytic subunit beta)	0	inactive
OR7A17 (olfactory receptor family 7 subfamily A member 17)	0	inactive
POC5 (POC5 centriolar protein)	0	inactive
TTC8 (tetratricopeptide repeat domain 8)	1	inactive

Copied from the entries so far (6 entries):
gene	two-siRNA summed score (-2 to +2)	call
TMEM59L (transmembrane protein 59 like)	0	inactive
RPS2P45 (ribosomal protein S2 pseudogene 45)	0	inactive
LOC93429	0	inactive
LOC153027	0	inactive
PNMA5 (PNMA family member 5)	0	inactive
MMP20 (matrix metallopeptidase 20)	-1	inactive

More records:
gene	two-siRNA summed score (-2 to +2)	call
CSNK2B (casein kinase 2 beta)	0	inactive
RNF128 (ring finger protein 128)	0	inactive
FTMT (ferritin mitochondrial)	0	inactive
JUND (JunD proto-oncogene, AP-1 transcription factor subunit)	-1	inactive
U2AF1L4 (U2 small nuclear RNA auxiliary factor 1 like 4)	0	inactive
ADGRV1 (adhesion G protein-coupled receptor V1)	0	inactive
RASA3 (RAS p21 protein activator 3)	0	inactive
EFEMP1 (EGF-like fibulin extracellular matrix protein 1)	0	inactive
POLR2J (RNA polymerase II subunit J)	0	inactive
COX8A (cytochrome c oxidase subunit 8A)	0	inactive
MAN1B1 (mannosidase alpha class 1B member 1)	0	inactive
NRDE2 (NRDE-2, necessary for RNA interference, domain containing)	0	inactive
OR4C6 (olfactory receptor family 4 subfamily C member 6)	0	inactive
MZB1 (marginal zone B and B1 cell specific protein)	0	inactive
TCIRG1	1	inactive
RPS27 (ribosomal protein S27)	-1	inactive
NAT8B (N-acetyltransferase 8B (putative, gene/pseudogene))	0	inactive
LOC440536	1	inactive
OR51I1 (olfactory receptor family 51 subfamily I member 1)	0	inactive
FANCI (FA complementation group I)	1	inactive
LOC441734	0	inactive
SLC66A3	0	inactive
MINDY1 (MINDY lysine 48 deubiquitinase 1)	0	inactive
